# Some of the results follow.
# Columns and labels:
# Assay in all cases: glycan array binding signal (z-score within array); higher = stronger binding
# Conditions in all cases: glycan notation: IUPAC condensed, linker removed
# [1] = molecular target: GlcA3S(b1-3)Gal(b1-4)GlcNAc(b1-3)Gal(b1-4)Glc
# How it was run: (§1)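 The Consortium for Functional Glycomics database supplied 3228 glycan arrays, of which those lacking an available protein sequence were dropped. The binding signal, a within-array Z-score, was averaged across arrays of the same protein sequence and across linkers. Negative scores can be read as non-binding.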
# [2] = molecular target: GlcNAc(a1-3)Gal(b1-4)GlcNAc
# How it was run: as §1
# [3] = molecular target: GlcNAc(a1-4)Gal(b1-3)GlcNAc
# How it was run: as §1
# [4] = molecular target: GlcNAc(a1-4)Gal(b1-4)GalNAc
# How it was run: as §1
# [5] = molecular target: GlcNAc(a1-4)Gal(b1-4)GlcNAc
# How it was run: as §1
# [6] = molecular target: GlcNAc(a1-4)Gal(b1-4)GlcNAc(b1-3)Gal(b1-4)Glc
# How it was run: as §1
# [7] = molecular target: GlcNAc(a1-4)Gal(b1-4)GlcNAc(b1-3)Gal(b1-4)GlcNAc
# How it was run: as §1
# [8] = molecular target: GlcNAc(a1-4)Gal(b1-4)GlcNAc(b1-3)Gal(b1-4)GlcNAc(b1-3)Gal(b1-4)GlcNAc
# How it was run: as §1
# [9] = molecular target: GlcNAc(a1-4)Gal(b1-4)GlcNAc(b1-3)Gal(b1-4)[Fuc(a1-3)]GlcNAc(b1-3)Gal(b1-4)[Fuc(a1-3)]GlcNAc
# How it was run: as §1
# [10] = molecular target: GlcNAc(a1-6)Gal(b1-4)GlcNAc
# How it was run: as §1
# [11] = molecular target: GlcNAc(b1-2)Gal(b1-3)GalNAc
# How it was run: as §1
# [12] = molecular target: GlcNAc(b1-2)Man(a1-3)[GlcNAc(b1-2)Man(a1-6)]Man(b1-4)GlcNAc(b1-4)GlcNAc
# How it was run: as §1
# [13] = molecular target: GlcNAc(b1-2)Man(a1-3)[GlcNAc(b1-2)Man(a1-6)]Man(b1-4)GlcNAc(b1-4)[Fuc(a1-6)]GlcNAc
# How it was run: as §1
# [14] = molecular target: GlcNAc(b1-2)Man(a1-3)[GlcNAc(b1-4)][GlcNAc(b1-2)Man(a1-6)]Man(b1-4)GlcNAc(b1-4)GlcNAc
# How it was run: as §1
# [15] = molecular target: GlcNAc(b1-2)Man(a1-3)[GlcNAc(b1-4)][GlcNAc(b1-2)Man(a1-6)]Man(b1-4)GlcNAc(b1-4)[Fuc(a1-6)]GlcNAc
# How it was run: as §1
# [16] = molecular target: GlcNAc(b1-2)[GlcNAc(b1-4)]Man(a1-3)[GlcNAc(b1-2)Man(a1-6)]Man(b1-4)GlcNAc(b1-4)GlcNAc
# How it was run: as §1
# [17] = molecular target: GlcNAc(b1-2)[GlcNAc(b1-4)]Man(a1-3)[GlcNAc(b1-4)][GlcNAc(b1-2)Man(a1-6)]Man(b1-4)GlcNAc(b1-4)GlcNAc
# How it was run: as §1
# [18] = molecular target: GlcNAc(b1-2)[GlcNAc(b1-4)]Man(a1-3)[GlcNAc(b1-4)][GlcNAc(b1-2)[GlcNAc(b1-6)]Man(a1-6)]Man(b1-4)GlcNAc(b1-4)GlcNAc
# How it was run: as §1
# [19] = molecular target: GlcNAc(b1-2)[GlcNAc(b1-4)]Man(a1-3)[GlcNAc(b1-4)][GlcNAc(b1-2)[GlcNAc(b1-6)]Man(a1-6)]Man(b1-4)GlcNAc(b1-4)[Fuc(a1-6)]GlcNAc
# How it was run: as §1
# [20] = molecular target: GlcNAc(b1-2)[GlcNAc(b1-6)]Man(a1-6)[GlcNAc(b1-2)Man(a1-3)]Man(b1-4)GlcNAc(b1-4)GlcNAc
# How it was run: as §1
# [21] = molecular target: GlcNAc(b1-2)[GlcNAc(b1-6)]Man(a1-6)[GlcNAc(b1-2)Man(a1-3)]Man(b1-4)GlcNAc(b1-4)[Fuc(a1-6)]GlcNAc
# How it was run: as §1
# [22] = molecular target: GlcNAc(b1-2)[GlcNAc(b1-6)]Man(a1-6)[GlcNAc(b1-2)Man(a1-3)][GlcNAc(b1-4)]Man(b1-4)GlcNAc(b1-4)GlcNAc
# How it was run: as §1
# [23] = molecular target: GlcNAc(b1-2)[GlcNAc(b1-6)]Man(a1-6)[GlcNAc(b1-4)][GlcNAc(b1-2)Man(a1-3)]Man(b1-4)GlcNAc(b1-4)GlcNAc
# How it was run: as §1
# [24] = molecular target: GlcNAc(b1-3)Fuc
# How it was run: as §1
# [25] = molecular target: GlcNAc(b1-3)Gal
# How it was run: as §1
# [26] = molecular target: GlcNAc(b1-3)Gal(b1-3)GalNAc
# How it was run: as §1
binder,measurement,setting,value
KISKRILTGKK [NK11 (Sus scrofa)],glycan array binding signal (z-score),[1],-1.34
same,glycan array binding signal (z-score),[2],-0.782
same,glycan array binding signal (z-score),[3],-0.995
same,glycan array binding signal (z-score),[4],-1.09
same,glycan array binding signal (z-score),[5],-0.68
same,glycan array binding signal (z-score),[6],-0.186
same,glycan array binding signal (z-score),[7],0.445
same,glycan array binding signal (z-score),[8],-0.593
same,glycan array binding signal (z-score),[9],-0.36
same,glycan array binding signal (z-score),[10],-1.01
same,glycan array binding signal (z-score),[11],-0.728
same,glycan array binding signal (z-score),[12],-0.184
same,glycan array binding signal (z-score),[13],2.26
same,glycan array binding signal (z-score),[14],0.163
same,glycan array binding signal (z-score),[15],-0.275
same,glycan array binding signal (z-score),[16],-0.053
same,glycan array binding signal (z-score),[17],-0.207
same,glycan array binding signal (z-score),[18],-0.172
same,glycan array binding signal (z-score),[19],0.997
same,glycan array binding signal (z-score),[20],0.472
same,glycan array binding signal (z-score),[21],0.899
same,glycan array binding signal (z-score),[22],-0.249
same,glycan array binding signal (z-score),[23],-0.237
same,glycan array binding signal (z-score),[24],0
same,glycan array binding signal (z-score),[25],-0.073
same,glycan array binding signal (z-score),[26],-0.235

# Looked up one by one from the list above, 2 records:
binder,measurement,setting,value
KISKRILTGKK [NK11 (Sus scrofa)],glycan array binding signal (z-score),[14],0.163
same,glycan array binding signal (z-score),[18],-0.172

# Reference: the supplement of paper PMC8728848
